The DeepSol protein solubility set

Test: soluble on expression in E. coli; label from the status in PepcDB or PDB records

Sequence | soluble on expression in E. coli
AHHHHHHGSGIVRAHLRIYGRVQGVGFRWSMQREAKKLGVNGWVRNLPDGSVEAVLEGEEERVEALIGWAHQGPPLARVTRVEVTWEEPKGEKGFRIIG | not soluble
AKQQRKELAGGDFTSPDASASSCGKEVPEDSNNFDGSHVYMHSDYNVYRVRSRYNSDWGETGTEQDEEEDSDENSYYQPDMEYSEIVGLPEEEEIPANRKIKFSSAPIKVFNTYSNEDYDRRNDEVDPVAASAEYELEKRVEKLELFPVELEKDEDGLGISIIGMGVGADAGLEKLGIFVKTVTEGGAAQRDGRIQVNDQIVEVDGISLVGVTQNFAATVLRNTKGNVRFVIGREKPGQVSEVAQLISQTLEQERRQRELLEQHYAQYDADDDETGEYATDEEEDEVGPVLPGSDMAIEVFELPENEDMFSPSELDTSKLSHKFKELQIKHAVTEAEIQKLKTKLQAAENEKVRWELEKTQLQQNIEENKERMLKLESYWIEAQTLCHTVNEHLKETQSQYQALEKKYNKAKKLIKDFQQKELDFIKRQEAERKKIEDLEKAHLVEVQGLQVRIRDLEAEVFRLLKQNGTQVNNNNNIFERRTSLGEVSKGDTMENLDGKQTSCQDGLSQDLNEAVPETERLDSKALKTRAQLSVKNRRQRPSRTRLYDSVSSTDGEDSLERKNFTFNDDFSPSSTSSADLSGLGAEPKTPGLSQSLALSSDESLDMIDDEILDDGQSPKHSQCQNRAVQEWSVQQVSHWLMSLNLEQYVSEFSAQNITGEQLLQLDGNKLKALGMTASQDRAVVKKKLKEMKMSLEKARKAQEKMEKQREKLRRKEQEQMQRKSKKTEKMTSTTAEGAGEQ | soluble
MADFGISAGQFVAVVWDKSSPVEALKGLVDKLQALTGNEGRVSVENIKQLLQSAHKESSFDIILSGLVPGSTTLHSAEILAEIARILRPGGCLFLKEPVETAVDNNSKVKTASKLCSALTLSGLVEVKELQREPLTPEEVQSVREHLGHESDNLLFVQITGKKPNFEVGSSRQLKLSITKKSSPSVKPAVDPAAAKLWTLSANDMEDDSMDLIDSDELLDPEDLKKPDPASLRAASCGEGKKRKACKNCTCGLAEELEKEKSREQMSSQPKSACGNCYLGDAFRCASCPYLGMPAFKPGEKVLLSDSNLHDA | soluble
MAHHHHHHMMPTMHAISSLCLLPTPFPPALVRLLLPPFFGNSKKTHEHTPTDPAARIHHGHTAAVSSLPPTFSAFRRHTTVLILRSRPSRTHIRIDTNERVGSTSASVHSAYPAPLSPLLASQPAPHMSSPAPSTQAFSLKTRQPIPDEDALLTEEDRILKQATKGEDCTTRRRACKNCVCGRAELERKLEAEVLTMPPGGCGNCSKGDAFRCAGCPFLGQPAFDATEDGKVKLNLTDDV | not soluble
MALETVLVAGRPGDEGNGQQLASTAIDIAKPADARVVVGQIFTDEEYETSKTSLGFDDASEVSPEQIAAQHGLFKSIVSQLDSAEVEYELRTATGPHANSIMDLAADVDLIIVGGANRSPTGKAVFGSTTQDVLVQAPCPVVFVRRE | not soluble
MALLLASAINHTAHPAGLRSHPNNESFSRHHLCSSPQNISKRRSNLSFRPRAQTISSESAGIHRLSPWEIPRRDWFPPSFLFGAATSAYQIEGAWNEDGKGPSTWDHFCHNFPEWIVDRSNGDVAADSYHMYAEDVRLLKEMGMDAYRFSISWPRILPKGTLAGGINEKGVEYYNKLIDLLLENGIEPYITIFHWDTPQALVEAYGGFLDERIIKDYTDFAKVCFEKFGKTVKNWLTFNDPETFCSVSYGTGVLAPGRCSPGVSCAVPTGNSLSEPYIVAHNLLRAHAETVDIYNKYHKGADGRIGLALNVFGRVPYTNTFLDQQAQERSMDKCLGWFLEPVVRGDYPFSMRVSARDRVPYFKEKEQEKLVGSYDMIGINYYTSTFSKHIDLSPNNSPVLNTDDAYASQETKGPDGNAIGPPTGNAWINMYPKGLHDILMTMKNKYGNPPMYITENGMGDIDKGDLPKPVALEDHTRLDYIQRHLSVLKQSIDLGADVRGYFAWSLLDNFEWSSGYTERFGIVYVDRENGCERTMKRSARWLQEFNGAAKKVENNKILTPAGQLN | soluble
MAVKVNKEFCSFCGKRQDEVLILIAGPNNTYICDECVEKCYQIVRENKKTSYNFELKDIPKPEQIKKILDEYVIGQERAKKILSVAVYNHYKRIKAKEAGLSLDDVELEKSNILLIGPTGSGKTLLARTLAKILNVPFAIADATSLTEAGYVGEDVENVLVRLLQACDYDVKAAQKGIVYIDEIDKIAKKSGINPSITRDVSGEGVQQALLKIVEGSVVNVPPQGGRKHPHQEFIQVDTTDILFICGGAFVGLEDIIKQRLGKSRVGFEAEIKKVDKEQDLLELVEPDDLIRFGMIPEFIGRFPVIATLRELTEDELVRILVEPKNALVKQYQKLFELEGVKLTFTEKALREIAKEAIRRKTGARGLRAIMEDIMADIMFEVPSLPGVKEVIIDENVVKNKEKPKLIFEQAV | soluble
MGHHHHHHSHMASPSLERPEKGAGKSEFRNQKPKPENQDESELLTVPDGWKEPAFSKEDNPRGLLEESSFATLFPKYREAYLKECWPLVQKALNEHHVNATLDLIEGSMTVCTTKKTFDPYIIIRARDLIKLLARSVSFEQAVRILQDDVACDIIKIGSLVRNKERFVKRRQRLIGPKGSTLKALELLTNCYIMVQGNTVSAIGPFSGLKEVRKVVLDTMKNIHPIYNIKSLMIKRELAKDSELRSQSWERFLPQFKHKNVNKRKEPKKKTVKKDIRHSHHHNQKVRSIKNWLVVNTF | not soluble
MGSDKIHHHHHHMIGLRPEDDRVYDVIVVGAGHAGIEAALAAARMGFRVLVLTVNPDTVGWAPCNPAIGGPAKGVVVREIDALGGEMAKTTDETMINVRMLNVSKGPAVRALRAQIDKISYSRTMKRKLETNPNIVLRHGIVERILTEKGRVKGVVDNYGIDYLGKAVIVTTGTFLRGKIFIGRSTFPAGRMGEFPATKLTESLIELGFEVGRFKTGTPARVLKRSINFSVMERQDTSDEPLAFSFFDEPRVLPKDYPCWLTRTNPETHSIIKQYLEFSPLYGTVKLIEGIGPRYCPSIEDKVVKFKDKESHQVFVEPEGRDTEEYYLNGLSTSLPYEAQIKMIRSVKGLENAIVTRPAYAIEYDYIDPRQLYPTLESKLVENLYFAGQVNGTSGYEEAAGQGIIAGINAALKLRGEPPLILKRSEAYIGVLIDDLVTKGVDEPYRLLTSRAEYRLLLRHDNAHLRLAKYGYRVGLIPKWFYEKVLSLERRINEEIERLKKVIVKPSDRVNDLLTSLRTSPLKEPVSFYQLLKRPQLSYSALKFLDPNPIDDPEVVEQVEINVKYEGYIQKMFEEVAVFEKYENYEIPHDLDYDAVPNLSTEARDKLKKIRPRSIGQAMRIPGINPSDISNLIIYLDRKKQ | not soluble
MKMDMEDADMTLWTEAEFEEECTYIVNDHPWDSGADGGTSVQAEASLPRNLLFKYATNSEEVIGVMSKEYIPKGTRFGPLIGEIYTNDTVPKNANRKYFWRIYSRGELHHFIDGFNEEKSNWMRYVNPAHSPREQNLAACQNGTNIYFYTIKPIPANQELLVWYCRDFAERLHYPYPGELTMMNLTQTQSSLKQPSTEKNELCPKNVPKREYSVKEILKLDSNPSKGKDLYRSNISPLTSEKDLDDFRRRGSPEMPFYPRVVYPIRAPLPEDFLKASLAYGIERPTYITRSPIPSSTTPSPSARSSPDQSLKSSSPHSSPGNTVSPVGPGSQEHRDSYAYLNASYGTEGLGSYPGYAPLPHLPPAFIPSYNAHYPKFLLPPYGMNCNGLSAVSSMNGINNFGLFPRLCPVYSNLLGGGSLPHPVLNPTSLPSSLPSDGARRLLQPEHPREVLVPAPHSAFSFTGAAASMRDKACSPTSGSPTAGTAATAEHVVQPKATSAAMAAPSSDEAMNLIKNKRNMTGYKTLPYPLKKQNGKIKYECNVCAKTFGQLSNLKVHLRVHSGERPFKCQTCNKGFTQLAHLQKHYLVHTGEKPHECQVCHKRFSSTSNLKTHLRLHSGEKPYQCKVCPAKFTQFVHLKLHKRLHTRERPHKCSQCHKNYIHLCSLKVHLKGNCAAAPAPGLPLEDLTRINEEIEKFDISDNADRLEDVEDDISVISVVEKEILAVARKEKEETGLKVSLQRNMGNGLLSSGCSLYESSDLPLMKLPPSNPLPLVPVKVKQETVEPMDP | soluble
MLESGVLKEGALEKRSDGLLQLWKKKRCVLTEDGLVLHPHKHHHQHQHQQQHDTGCKVKELHFANMKTVDCVERKGKYVYFTVVMSEGREIDFRCLQDEGWNAEITLRMVQYKNRQAILAVKSSRQKQQQLLVVSAQKMVRSAQ | not soluble
MPVMGGQQRITLGNLHFQQDPNDPQKWIITNEGPPVAGPSAPARKPNQIQHRQMIPQMNEDGMMNMGNDYGDINGQGLGEAPKRCACTCPNCLQQNNRQGDGKSRIHICHLCNKTYGKTSHLRAHLRGHAGNKPFACDWQHCNKKFTRSDELQRHRRTHTGEKRFACNHCGKKFMRSDHLTKHERTHQSNRINNINQQTLRLS | not soluble
MSLVRPSQRREMARWAVANKAMSIRHACQAFEVSQTCYRYQAKASEENVQIADWLVRLTTTYRDWGFGLCFLHLRNVKGFGWNHKRVYRIYRELELNLRIKPKKRLVRERPEPLSVPEAINQVWSMDFMHDQLADGRSFRLFNVLDDFNREGLGIEVDLSLPSARVIRSLDQIIDWRGKPNAIRCDNGPEYISGALLAWAQQRGIRIEHIQPGKPQQNAYVERYNRTVRYAWLATTLFDTIEQVQDKATRWLWTYNHERPNMALGGITPAMKLAMAEGHHHHHH | not soluble
MTTIDTLATCTQQNRDAVYTLLRRYFTANRTLLLQSDLREGLLQTEQDCGQSDMLRAFVFRLQEGIFSSPWAYLALRPEIAKWEFMRIHQEHLIPEKLTISEFLKFKETVVKGEATESVLEVDFGPFNRGFPRLKESRSIGQGVIFLNRKLSSEMFSRIEAGHTSLLHFLGVHAIEGQQLMFSNNSHDIHAVRNQLRQALEMLETLDGTTPWIELAPKMNQLGFAPGWGHNANRVAETMNMLMDILEAPSPSALEEFLACIPMISRLLILSPHGYFGQDNVLGLPDTGGQVVYILDQVRALEKEMHDRLQLQGVQVEPKILIVTRLIPDAGDTTCNQRLEKVSGCTNTWILRVPFRKHNGEIIPHWISRFEIWPHLEIFAGDVEREALAELGGHPDLIIGNYSDGNLVATLLSRRLGVTQCNIAHALEKTKYLHSDIYWQENEDKYHFSCQYTADLLAMNSADFIVTSTYQEIAGTREAEGQYESYQAFSMPDLYRVIHGIDLFDPKFNIVSPGANADIYFPYSDPNRRLHSLIPEIESLIFDDATNLPARGYLQDPLEHHHHHH | not soluble
MVICSGPSMHPTIHDGDLVLAERFSIRNKNVQVGDIVGCVNPQKPKELLCKRIAAKEGDPVTSHLLPSGRVPIGHVFLRGDNGPVSTDSRHFGPVPEALVQIRLSLRIWPPERAGWISDHWFWDKTQKLLKMADRMTQLQDMINEMAGLMTNAIGVLQATAPPCEFGAISQELEDEPNCAIFAAGIAKAAKNIEILIDSFPIEAGNQEAEVEEKMIKNDEKQREKVNELVGLVGDSNRLVGVVQKKLAEISKTQMSSRPSE | not soluble
QEERNQQQDDIEELETKAVGMSNDGRFLKFDIEIGRGSFKTVYKGLDTETTVEVAWCELQDRKLTKSERQRFKEEAEMLKGLQHPNIVRFYDSWESTVKGKKCIVLVTELMTSGTLKTYLKRFKVMKIKVLRSWCRQILKGLQFLHTRTPPIIHRDLKCDNIFITGPTGSVKIGDLGLATLKRASFAKAVIGTPEFMAPEMYEEKYDESVDVYAFGMCMLEMATSEYPYSECQNAAQIYRRVTSGVKPASFDKVAIPEVKEIIEGCIRQNKDERYSIKDLLNHAFFQEET | soluble
SEEEQKKKALERSMYVLSELVETEKMYVDDLGQIVEGYMATMAAQGVPESLRGRDRIVFGNIQQIYEWHRDYFLQELQRCLKDPDWLAQLFIKHERRLHMYVVYCQNKPKSEHVVSEFGDSYFEELRQQLGHRLQLNDLLIKPVQRIMKYQLLLKDFLKYYNRAGMDTADLEQAVEVMCFVPKRCNDMMTLGRLRGFEGKLTAQGKLLGQDTFWVTEPEAGGLLSSRGRERRVFLFEQIIIFSEALGGGVRGGTQPGYVYKNSIKVSCLGLEGNLQGDPCRFALTSRGPEGGIQRYVLQAADPAISQAWIKHVAQILESQRDFLNALQSPIEYQRRESQTNSLGRPRGPGVGSP | soluble
